From PubChem BioAssay AID1347423 (Functional Genomics Laboratory (NCATS/FGL), 2020)
The campaign covered roughly 52,000 sequences. About 210 (0.4%) were called active.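 Rule for the calls: active = gene whose silencing raises cell survival under the drug, median off-target-corrected z-score across its silencing RNAs 2 or more; inactive = the rest.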 The list shows a part of the results.

Experiment: Resistance to Poly (ADP-Ribose) Polymerase inhibitor: Gene Identification via Genome-wide siRNA Screen
Conditions: mouse BRCA2 R2336H ES cells, olaparib, CellTiter-Glo viability; active compounds read high
In short: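 Genome-wide siRNA screen (3 siRNAs/gene, 20 nM) in mouse ES cells carrying hypomorphic BRCA2 R2336H; olaparib 500 nM added 48 h post-transfection, CellTiter-Glo viability 72 h later. Normalized to plate-median negative control; MAD z-scores, gene median, seed-adjusted.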
For GCUUACCACUAAGCAUCUUTT against Ctsc, the z-score was inactive: -1.19. With “GGAAAAUUCAUCCUUAGUATT against 2700038L12Rik” the z-score was inactive: 1.02. With GGAAGAUAUUGCUGUUGGATT against Mbd4 the z-score was inactive: -1.1. For GGACUUUGCACUUCUCACATT against Fut1, the z-score was inactive: 0.0519. For GCAAUACCUCAGAAAAAGUTT against Tparl, the z-score was inactive: -0.983. For “GCCAUCCUUCCAUUUAAGATT against 2410187C16Rik”, the z-score was inactive: -0.594. For GGCUUUUCACACGAUAGGGTT against Rab9b, the z-score was inactive: -0.926. With CCGUAGGAGAAGAAAUCCGTT against Grap2 the z-score was inactive: 2.63. In the case of CCAAAUUUGGCAUUUCUAATT against Slc31a1, the z-score is reported as inactive: -1.76. With GGCAAGAACAUUUUAUCAATT against Adamts12 the z-score was inactive: 2. For “GCCUGUAUCAAUAAUUCAATT against 2300003P22Rik”, the z-score was inactive: 1.24. For GGUUUACUCAGUUAACAGATT against Tgoln1, the z-score was inactive: 0.826. With GGUGGUGAUUCAUCUGUGCTT against Tas2r135 the z-score was inactive: -1.53. In the case of GCAAAUCCCAUGAACAGCUTT against Nvl, the z-score is reported as inactive: 1.27. With “GCUCAUCUCCUUGAAUUCATT against 9430057O19Rik” the z-score was inactive: -0.287. With GGAGGAAAAGAAAAUUGAGTT against Nef3 the z-score was inactive: 0.84. With GCGCAGAGGGAUCAUAGAGTT against Heyl the z-score was inactive: 0.592. In the case of “GGAGUCAAAAAUGCAUUCATT against C330023D02Rik”, the z-score is reported as inactive: -0.914. For GGGUCAUGUUUUUAAGAAGTT against Sdfr2, the z-score was inactive: 0.391. With GGAACUGAAACAGUUGGAATT against Tmod2 the z-score was inactive: 0.518. In the case of GGAUGAAACUAUUCAGCACTT against Chml, the z-score is reported as inactive: 0.176. For GCAUGACAGAGUUAUUCAUTT against Olfr474, the z-score was inactive: 0.132. With CGACUAUGGUUUAAUCAUCTT against Atp11a the z-score was inactive: 0.383. With “CGGUACAGGGUAAAGGACATT against 4931440B09Rik” the z-score was inactive: -0.305. In the case of “CCUAUUAAAUCUCUGUAAGTT against D030051D21”, the z-score is reported as inactive: -0.621. In the case of GGAAUUUUGCCACUAAGAUTT against Pfkm, the z-score is reported as inactive: -1.9. For GGAGCUGAAUGUGUUUCGGTT against Vmd2l1, the z-score was inactive: 0.371. With “GCCGGCCAGAAUAUACAUUTT against B930041F14Rik” the z-score was inactive: -1.52. In the case of “CCGGAGUCAGUAUCCAGAATT against 1110007M04Rik”, the z-score is reported as inactive: -1.64. For GGUUUCUCGACCUACAUUUTT against BC040823, the z-score was inactive: -1.24. With “GGCAUCAAAGUGACAGAUGTT against 4921511I16Rik” the z-score was inactive: -0.915. In the case of GGACUCUGCCUUUGACCCATT against Myl4, the z-score is reported as inactive: -0.112. With GGAACACUCAGGUCUUUCUTT against Olfr450 the z-score was inactive: -1.55. For GGAGCCCAAAAAGAAGAAATT against Mrpl48, the z-score was inactive: 0.144. In the case of CGGCAAUUCCAGAAAUGAUTT against Wbscr16, the z-score is reported as inactive: 0.597. In the case of “GGACUUUCUUGAGGUAUUATT against 2810453K03Rik”, the z-score is reported as inactive: 0.03. With “GGCAAUAAUCUUAGAGGUUTT against 9530068E07Rik” the z-score was inactive: -1.84. In the case of “GCGAAGGAUGAUGUGUAUUTT against 2610529C04Rik”, the z-score is reported as inactive: 0.6. In the case of GGAGUUUGCCAGUCAGAUCTT against Ralgps1, the z-score is reported as inactive: -2.04. In the case of “GGAAGUACAGUGGUCUCUGTT against 4930477M19”, the z-score is reported as inactive: -0.412. For GGCUUUAAGGGACAACUGATT against D17Wsu94e, the z-score was inactive: -0.639. For GGUAUUAAAUGCUAUGCUGTT against Srp54, the z-score was inactive: 0.945. With GGUGGUGCAUCCUAAGAAATT against Gp1bb the z-score was inactive: 0.959. With CCUCAGAAAAAGCCUAUAGTT against Kcnj3 the z-score was inactive: -1.21. With GGAUCAAGAUGUUUACUAATT against Nedd1 the z-score was inactive: -0.37. For GGCCAAUAAAGAAACAAACTT against Cst9, the z-score was inactive: 1.86. For CCAUGCUUUUGAUUUUAGUTT against Lrig2, the z-score was inactive: 0.867. For GGUACAUUAAGGCACUGGCTT against Mgat5, the z-score was inactive: -0.0193. In the case of GUGCUUUCGUGUUUUUCAATT against Klrb1b, the z-score is reported as inactive: 0.521. For GGAUUAUACACACGAAUUUTT against Gosr1, the z-score was inactive: 0.404. For GGCAACAGCCAUCUAAACGTT against Cdkn2d, the z-score was inactive: -0.277. In the case of GGCCCUCAGUUAUUAUGAGTT against AI661311, the z-score is reported as inactive: 0.298. For “GGAAUAUCAGCCAUAAGUUTT against A930004D23Rik”, the z-score was inactive: -0.0561. In the case of “CCCUAGCAUCAAGAGUGCUTT against 2510002A14Rik”, the z-score is reported as inactive: 0.159. For GGCCAUUCAGAUCUUAACCTT against Hadhsc, the z-score was inactive: -0.0172. With GGUUAAACUUGGUGAAUUATT against Kcnj16 the z-score was inactive: -0.334. With GGUCUUAAGUUCAGAACCCTT against Gtlf3b the z-score was inactive: 0.173. With CGUUCUACCAAUCAUUAAUTT against Mrpl49 the z-score was inactive: -0.0188. With GGUGUCAUGAUGAACACAGTT against Slc22a12 the z-score was inactive: -0.801. For CCACUUAGGUUAGAAAGAATT against R3hdm, the z-score was inactive: -0.949. For GGCAAUCACGUGACAUUUCTT against Stk31, the z-score was inactive: -1.25. For GGUUCAUCGUUUUUAAUAGTT against Emb, the z-score was inactive: 0.402. For CUCCUCAGUCAACAAGAACTT against Hoxc11, the z-score was inactive: -0.826. With GGAGAAGGUUUUGAUGUGGTT against Drg1 the z-score was inactive: 1.11. For GGGAGUAUGUUUGUGGCUCTT against Edg1, the z-score was inactive: -0.109. In the case of CGUAGCCGAGAAGACCCUATT against Shh, the z-score is reported as inactive: 0.637. For GGUGUUGUUCCCUGUAAUATT against Tde2, the z-score was inactive: -0.824. In the case of CGCUGCUGUAUAAGCCCAUTT against Prkab2, the z-score is reported as inactive: -1.11. With GUGUUCUAUGGAUCCUCUCTT against Fpr-rs4 the z-score was inactive: -0.496. In the case of GGCAAAACUCAUGUUCUUUTT against Prox1, the z-score is reported as inactive: -0.771. With “GGAUCUGGUUGGCAAGCAUTT against 2310015J09Rik” the z-score was inactive: 0.686. In the case of “CCAAUGUGAUCUUGAGCCATT against 1110012D08Rik”, the z-score is reported as inactive: -1.94. With GGGAUAGUGUAAGUUAGUUTT against Dppa4 the z-score was inactive: 1.58. For “CCACUGUCAGGCCAAAAACTT against 2210417J20Rik”, the z-score was inactive: -1.18. In the case of “GGUCCUUAGCUGAGUCAUUTT against D14Ertd449e”, the z-score is reported as inactive: 1.2. With GGAAGACGACACUGUGUGGTT against Dp1l1 the z-score was inactive: 1.41. With “GGGUAUGAGGGCCAAAAUATT against A230106M15Rik” the z-score was inactive: -2.94. For “GGGAGAUUCAUUUUCCCAGTT against 4732452J19Rik”, the z-score was inactive: 0.725. In the case of GGAUGAGUGAAGACUUAGCTT against Sag, the z-score is reported as inactive: -0.0608. In the case of GGCAGAAGUUACAAAAGAATT against H47, the z-score is reported as inactive: -1.49. For GGAACAGCAGCAGAGUGAATT against Gkap1, the z-score was inactive: -2.2. For CGGAUUGAGUAAUUAUUUCTT against Zcwcc2, the z-score was inactive: 0.894. For GCAUAACUAACCACAUCAATT against Sema5a, the z-score was inactive: 0.467. In the case of CCUACUCAGUGACAAAGGATT against Olfr366, the z-score is reported as inactive: -1.86. With UAGGAUUUAGCAAGCCACCTT against BC038328 the z-score was inactive: -0.447. In the case of GCGGAAGCGUGAAUCCAAATT against MGC67569, the z-score is reported as inactive: -0.309. With CCCUAAUCAAGUUUGCUAUTT against Armc7 the z-score was inactive: 1.42. With GGUGGACUUGUACCUCUUCTT against Tnks the z-score was inactive: 0.29. In the case of GGGACUUAUACUGAAAUAATT against Eif2ak4, the z-score is reported as inactive: -2.42. For “GGUUGCGUGUGGUUACUAUTT against 1700056O17Rik”, the z-score was inactive: -1.64. With CCAAUUACCGAAUAAGUUCTT against Map3k12 the z-score was inactive: 0.0421. With GGUGGUUUGUGAUGAAAAUTT against Pabpc1 the z-score was inactive: -3.26. In the case of GGAAGGUUCAGAAGUGACATT against Strm, the z-score is reported as inactive: -0.785. For “GGACUUUGUAGACAACGUGTT against 1810038H16Rik”, the z-score was inactive: 0.00808. For CCACAGACAGUUAUUACUGTT against Emr1, the z-score was inactive: -1.55. For GGUUUUCCUGUUAUUUUCUTT against Mapre2, the z-score was inactive: 1.14. For GGUAUACCAAGAAGCUAAGTT against Kctd14, the z-score was inactive: 1.67. In the case of “GGCGCAGGGAAUAAUCUACTT against 6530421E24Rik”, the z-score is reported as inactive: 0.763. With CCUUUCAAGUUGUAGGCUGTT against BC028265 the z-score was inactive: -0.639. In the case of GGAUUGACAGUGUCAGUCUTT against Gnal, the z-score is reported as inactive: 0.5. With GGAGAUACAAUGUGAAAAGTT against Odf2 the z-score was inactive: -2.12. In the case of GGUACUGAUCAUGGAAUAUTT against Hibch, the z-score is reported as inactive: -1.55. For GGGUUGCUAAUGGAGAUGGTT against Slc12a1, the z-score was inactive: -0.326. With “GCUGCUCAGCCAUACCUUGTT against 4921520L01Rik” the z-score was inactive: -1.4.
